Assay results reported in PubChem BioAssay AID1259354 (Paczesny and Yang Labs, IUPUI and University of Michigan, 2018).
The whole screen tested about 78,000 compounds, of which about 1,800 (2.3%) were called active. Inconclusive means that the source gave no clear call. Such entries were picked first, then a sample of the others. Rule as the data show it: active = inhibition above about 30%; inconclusive = mostly about 10% to 28%; inactive = weaker than that.

Sequences of proteins named here, by UniProt entry; tags and fusion partners are left off. A change or cut given only in a name is not applied to a line headed by its entry.
UniProt Q01638: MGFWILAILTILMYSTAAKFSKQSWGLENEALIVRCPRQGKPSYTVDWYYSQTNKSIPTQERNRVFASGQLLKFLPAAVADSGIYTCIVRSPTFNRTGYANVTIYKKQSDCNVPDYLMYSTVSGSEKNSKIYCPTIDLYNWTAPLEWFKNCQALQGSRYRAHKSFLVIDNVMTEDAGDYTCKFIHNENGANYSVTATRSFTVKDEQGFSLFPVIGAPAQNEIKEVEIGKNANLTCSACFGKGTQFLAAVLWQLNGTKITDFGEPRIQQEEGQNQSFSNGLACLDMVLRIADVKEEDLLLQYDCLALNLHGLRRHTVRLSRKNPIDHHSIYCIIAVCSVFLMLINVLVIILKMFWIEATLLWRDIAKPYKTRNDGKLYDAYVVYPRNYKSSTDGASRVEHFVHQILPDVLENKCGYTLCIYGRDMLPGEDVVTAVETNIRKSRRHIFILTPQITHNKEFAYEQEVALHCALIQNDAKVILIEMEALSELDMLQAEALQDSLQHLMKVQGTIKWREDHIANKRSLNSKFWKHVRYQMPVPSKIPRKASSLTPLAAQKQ

These compounds were tested against Interleukin-1 receptor-like 1 (Homo sapiens) (UniProt Q01638) (assay: blocks human ST2 binding to IL-33, primary screen, biochemical, AlphaLISA (AID 1259354)). Conditions: AlphaLISA ST2-Fc/biotin-IL-33 interaction, 1 h; at 17 µM, active compounds read high.
With `O=C(NCc1ccncc1)C(=O)Nc1ccccc1F` the inhibition was “inactive”.
In the case of `CCOc1ccc(S(=O)(=O)N2CCSC2c2ccccc2Cl)cc1` (stereo unspecified), the inhibition is reported as “inactive”.
With `CCn1cc(C(=O)N2CCc3c([nH]c4ccccc34)C2C2CCCCC2)cn1` (stereo unspecified) the inhibition was “inactive”.
In the case of `Cc1nc2nc(SCC(=O)NCc3cccs3)nn2c(C)c1Cc1ccccc1`, the inhibition is reported as “inactive”.
For `CC(=O)N1CC[C@H](c2nc3cc(Cl)ccc3o2)C1`, the inhibition was inconclusive: 12%.
For `Clc1cccc(NCc2ccncc2)c1`, the inhibition was inconclusive: 11%.
With `N#Cc1cccc(CN2C[C@H](O)C[C@H]2c2nc(-c3ccc(OC(F)(F)F)cc3)no2)c1` the inhibition was inconclusive: 16%.
`CC(C)c1nnc(NC(=O)CC(NC(=O)C(F)(F)F)c2ccccc2)s1` (stereo unspecified) was tested, and the inhibition was “inactive”.
`Cc1ccccc1NC(=O)c1cc2cc(Br)ccc2oc1=O` was tested, and the inhibition was “inactive”.
In the case of `CO[C@H](C(=O)N1C[C@@H]2C[C@H](C1)[C@@H]1CCCC(=O)N1C2)c1ccccc1`, the inhibition is reported as “inactive”.
For `Cn1c(=O)c2c(ncn2CN2C(=O)c3ccccc3C2=O)n(C)c1=O`, the inhibition was inconclusive: 11%.
In the case of `COc1ccc(C2=NN(C(=O)c3cccs3)C(c3ccccc3F)C2)cc1OC` (stereo unspecified), the inhibition is reported as inconclusive: 11%.
`COC(=O)C1=C(C)OC(N)=C(C#N)C1c1cc([N+](=O)[O-])cs1` (stereo unspecified) was tested, and the inhibition was inconclusive: 10%.
`CN1CCNC(=O)C12CCN(Cc1ccccc1OCc1ccccc1)CC2` was tested, and the inhibition was inconclusive: 16%.
In the case of `CCOc1ccc2nc(N3CCCC(NCCCn4nnc5ccccc54)CC3)nc(C)c2c1` (stereo unspecified), the inhibition is reported as inconclusive: 20%.
With `O=C(c1cn(C2CCCCC2)nn1)N1CCCC(OCc2ccccc2)C1` (stereo unspecified) the inhibition was “inactive”.
In the case of `Cc1ccc2nc(-c3cc(N=Cc4cccc([N+](=O)[O-])c4O)ccc3O)[nH]c2c1`, the inhibition is reported as active: 36%.
With `COc1ccc(Br)cc1C1C(C#N)=C(N)OC2=C1C(=O)CC(C)(C)C2` (stereo unspecified) the inhibition was “inactive”.
For `CCCOC(=O)C1=C(C)NC2=C(C(=O)CC(C)(C)C2)C1c1ccc2c(c1)OCO2` (stereo unspecified), the inhibition was “inactive”.
`O=C1CCc2cc(S(=O)(=O)N(CCc3ccccc3)Cc3ccccc3)ccc2N1` was tested, and the inhibition was “inactive”.
With `O=C(NCc1ccco1)[C@@H]1Cc2nc[nH]c2CN1Cc1cccnc1` the inhibition was inconclusive: 17%.
For `CCN(CC)CCCNC(=O)c1cn(CC)c(=O)c2cc(OC)c(OC)cc12`, the inhibition was inconclusive: 14%.
With `CCCCCC(=O)Nc1ccc(S(=O)(=O)Nc2cc(OC)ncn2)cc1` the inhibition was inconclusive: 21%.
`Cc1nnc(Sc2cc(C(=O)NCc3ccccn3)c3ccccc3n2)s1` was tested, and the inhibition was inconclusive: 17%.
In the case of `CCC1CCCCN1CCCNC(=O)CN1C(=O)CSc2ccccc21` (stereo unspecified), the inhibition is reported as “inactive”.
For `COc1ccc(C2C(C#N)=C(N)OC3=C2C(=O)CC(C)(C)C3)cc1Br` (stereo unspecified), the inhibition was “inactive”.
In the case of `Cn1c(=O)c2c(SCc3ccc(F)cc3)nc(-c3ccco3)nc2n(C)c1=O`, the inhibition is reported as inconclusive: 22%.
`COc1ccc(NC(=O)c2coc(=O)c3ccccc23)cc1Cl` was tested, and the inhibition was “inactive”.
`O=S(=O)(NCc1ccccc1)NCC1(N2CCCC2)CCCC1` was tested, and the inhibition was inconclusive: 14%.
`CCCc1nc2nc[nH]n2c(=O)c1NC(=O)Nc1cccc(OC)c1` was tested, and the inhibition was “inactive”.
With `CC1(C)OC(=O)C(=CNC(CO)C(=O)O)C(=O)O1` (stereo unspecified) the inhibition was inconclusive: 26%.
For `CCOC(=O)c1c(NC(=O)C(C)Sc2cn(C)c3ccccc23)sc2c1CCC2` (stereo unspecified), the inhibition was inconclusive: 17%.
`CC(=O)c1ccc(NC(=O)N2Cc3[nH]cnc3C[C@H]2c2nc(-c3ccc(Cl)cc3)no2)cc1` was tested, and the inhibition was inconclusive: 13%.
With `CCN(CC)Cc1cnc2c(C(=O)NCc3nccs3)cnn2c1` the inhibition was inconclusive: 11%.
`Cc1ccccc1NCCNc1ccccc1C` was tested, and the inhibition was active: 34%.
`Cc1ccccc1N1CCN(Cc2cc(C#CCO)cs2)C(C)C1` (stereo unspecified) was tested, and the inhibition was inconclusive: 10%.
For `Cc1cc(N2CCOCC2)nc(N2CCN(S(=O)(=O)c3ccc(C)c(C)c3)CC2)n1`, the inhibition was inconclusive: 13%.
In the case of `O=c1[nH]c2ccc(S(=O)(=O)NCCC3=CCCCC3)cc2s1`, the inhibition is reported as “inactive”.
`CCCCn1nnnc1NC(=O)N1CCC(CC)(CC)C1` was tested, and the inhibition was inconclusive: 12%.
`O=C(O)C[C@@H]1CCN(C(=O)COc2ccccc2)C[C@@H]1CCN1CCCCC1` was tested, and the inhibition was inconclusive: 14%.
`O=C(CN1CCOCC1)N1CCCc2c1c(=O)oc1ccc(OCc3ccccc3)cc21` was tested, and the inhibition was inconclusive: 19%.
In the case of `O=C(c1cn(C2CCCCC2)nn1)N1CCN(Cc2ccc3c(c2)OCO3)CC1`, the inhibition is reported as inconclusive: 13%.
`COc1ccc2nc(NC(=O)/C=C/c3ccc([N+](=O)[O-])cc3)sc2c1` was tested, and the inhibition was active: 31%.
In the case of `O=C(Nc1ccccc1I)c1ccc([N+](=O)[O-])cc1Cl`, the inhibition is reported as inconclusive: 13%.
`COc1cccc2c1OCCCN(C(=O)CC1COCCN1)C2` (stereo unspecified) was tested, and the inhibition was inconclusive: 11%.
In the case of `CC(C)c1cc(C(=O)N2CCN3CCN(C)C(=O)C3C2)nc2ncnn12` (stereo unspecified), the inhibition is reported as “inactive”.
